Among the data in paper PMC3830475 are binding values, retold here.

Test [1] has as its target T1, ERS1 (residues 130–613) (Arabidopsis) (UniProt Q38846).
T1 sequence: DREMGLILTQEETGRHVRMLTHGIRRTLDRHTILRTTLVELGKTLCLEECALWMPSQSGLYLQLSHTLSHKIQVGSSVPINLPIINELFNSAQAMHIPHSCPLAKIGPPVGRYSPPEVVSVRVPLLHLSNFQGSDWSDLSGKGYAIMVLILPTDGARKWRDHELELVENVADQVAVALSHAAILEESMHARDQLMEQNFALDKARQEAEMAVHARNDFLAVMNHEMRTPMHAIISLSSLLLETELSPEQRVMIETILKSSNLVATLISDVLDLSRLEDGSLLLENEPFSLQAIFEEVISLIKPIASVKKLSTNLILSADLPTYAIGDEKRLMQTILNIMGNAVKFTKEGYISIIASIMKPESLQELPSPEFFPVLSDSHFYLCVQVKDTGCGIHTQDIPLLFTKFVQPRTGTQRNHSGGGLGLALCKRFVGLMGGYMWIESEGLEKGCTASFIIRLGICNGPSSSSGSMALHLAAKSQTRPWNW
The test can be described thus: two-hybrid; yeast strain L40; ETR1^331–729 or ERS1^130–613 in pBTM116 co-expressed with OsCTR2^1–513 in pGADT7; growth in the presence of high 3-amino-1,2,4-triazole concentrations, X-gal staining (80 mg/l, 24 h, 30 °C) and β-galactosidase activity with chlorophenol red–β-D-galactopyranoside.

Test [2] has as its target T2, ETR1 (residues 331–729) (Arabidopsis) (UniProt P49333).
T2 sequence: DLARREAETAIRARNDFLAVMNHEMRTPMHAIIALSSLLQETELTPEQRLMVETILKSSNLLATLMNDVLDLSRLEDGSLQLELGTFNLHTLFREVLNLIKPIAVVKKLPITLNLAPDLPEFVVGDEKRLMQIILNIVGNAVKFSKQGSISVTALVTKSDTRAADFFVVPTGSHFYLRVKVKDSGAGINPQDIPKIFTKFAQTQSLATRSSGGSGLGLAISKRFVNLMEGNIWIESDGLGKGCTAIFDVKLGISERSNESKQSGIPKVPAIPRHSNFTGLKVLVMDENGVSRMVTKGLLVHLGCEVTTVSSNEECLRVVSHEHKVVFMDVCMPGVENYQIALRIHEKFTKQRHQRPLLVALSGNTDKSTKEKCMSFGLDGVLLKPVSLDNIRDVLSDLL
The description is as above.

These are yes or no findings as the source states them, for the method shown. Binding can be weak; no strength is given.

Regarding “OsCTR2 N terminus (residues 1–513) (rice) (domain or fragment)”, the binding entry in test [1] and in test [2] was “binds” in each case.
